# From the supplement of paper PMC12067093, “Discovery and optimisation of a covalent ligand for TRIM25 and its application to targeted protein ubiquitination” (Chemical Science, 2025)
# By UniProt entry, the sequences of proteins in these tests, tags left out. Where a name states a change or a piece, a line headed by the entry shows the natural chain unless it says otherwise.
# UniProt Q8N1F8: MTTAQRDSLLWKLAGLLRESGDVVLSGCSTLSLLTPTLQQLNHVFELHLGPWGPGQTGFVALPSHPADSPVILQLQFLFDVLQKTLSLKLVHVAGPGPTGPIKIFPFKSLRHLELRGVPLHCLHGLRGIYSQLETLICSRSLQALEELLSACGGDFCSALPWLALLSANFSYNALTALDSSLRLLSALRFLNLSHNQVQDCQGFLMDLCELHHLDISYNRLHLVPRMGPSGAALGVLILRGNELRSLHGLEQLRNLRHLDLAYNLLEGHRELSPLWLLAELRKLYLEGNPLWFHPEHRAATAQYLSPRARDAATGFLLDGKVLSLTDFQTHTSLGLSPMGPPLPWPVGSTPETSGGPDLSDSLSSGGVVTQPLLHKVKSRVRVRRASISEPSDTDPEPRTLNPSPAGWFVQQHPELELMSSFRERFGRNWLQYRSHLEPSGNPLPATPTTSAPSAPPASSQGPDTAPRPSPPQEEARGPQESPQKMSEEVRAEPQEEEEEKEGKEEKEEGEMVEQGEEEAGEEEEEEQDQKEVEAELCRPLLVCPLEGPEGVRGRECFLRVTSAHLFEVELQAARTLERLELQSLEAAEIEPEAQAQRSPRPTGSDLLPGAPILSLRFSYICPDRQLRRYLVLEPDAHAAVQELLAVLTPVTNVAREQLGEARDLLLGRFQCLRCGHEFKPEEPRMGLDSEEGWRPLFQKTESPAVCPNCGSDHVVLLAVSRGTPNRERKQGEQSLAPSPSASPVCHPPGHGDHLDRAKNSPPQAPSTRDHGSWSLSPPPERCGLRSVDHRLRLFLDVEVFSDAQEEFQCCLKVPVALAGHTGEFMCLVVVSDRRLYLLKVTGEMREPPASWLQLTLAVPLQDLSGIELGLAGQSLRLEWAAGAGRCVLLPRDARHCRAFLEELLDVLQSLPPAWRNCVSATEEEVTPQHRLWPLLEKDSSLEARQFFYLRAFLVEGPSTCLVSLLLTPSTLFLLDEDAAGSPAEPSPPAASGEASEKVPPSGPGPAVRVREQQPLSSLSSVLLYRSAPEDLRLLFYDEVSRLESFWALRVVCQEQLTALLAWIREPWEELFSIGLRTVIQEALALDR
# UniProt Q15022: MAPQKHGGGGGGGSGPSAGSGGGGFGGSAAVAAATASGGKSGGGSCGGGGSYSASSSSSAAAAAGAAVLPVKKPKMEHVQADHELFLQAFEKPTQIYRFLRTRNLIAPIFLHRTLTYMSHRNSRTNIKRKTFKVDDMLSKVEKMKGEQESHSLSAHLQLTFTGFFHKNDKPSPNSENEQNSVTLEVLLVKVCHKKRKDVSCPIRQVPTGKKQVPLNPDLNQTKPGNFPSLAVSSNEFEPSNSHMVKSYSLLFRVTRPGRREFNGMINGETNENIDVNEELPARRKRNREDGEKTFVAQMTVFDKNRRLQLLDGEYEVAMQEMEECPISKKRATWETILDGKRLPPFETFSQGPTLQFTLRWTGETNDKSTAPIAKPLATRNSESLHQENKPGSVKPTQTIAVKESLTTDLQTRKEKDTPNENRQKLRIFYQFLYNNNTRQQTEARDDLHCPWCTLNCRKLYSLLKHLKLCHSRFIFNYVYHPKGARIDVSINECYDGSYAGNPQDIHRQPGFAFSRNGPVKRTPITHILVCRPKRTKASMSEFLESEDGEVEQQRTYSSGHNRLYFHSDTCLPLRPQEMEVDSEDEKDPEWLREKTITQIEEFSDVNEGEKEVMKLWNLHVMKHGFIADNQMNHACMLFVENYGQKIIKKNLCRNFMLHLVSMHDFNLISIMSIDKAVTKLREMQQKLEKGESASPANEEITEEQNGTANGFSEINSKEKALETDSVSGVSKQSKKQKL
# UniProt O00186: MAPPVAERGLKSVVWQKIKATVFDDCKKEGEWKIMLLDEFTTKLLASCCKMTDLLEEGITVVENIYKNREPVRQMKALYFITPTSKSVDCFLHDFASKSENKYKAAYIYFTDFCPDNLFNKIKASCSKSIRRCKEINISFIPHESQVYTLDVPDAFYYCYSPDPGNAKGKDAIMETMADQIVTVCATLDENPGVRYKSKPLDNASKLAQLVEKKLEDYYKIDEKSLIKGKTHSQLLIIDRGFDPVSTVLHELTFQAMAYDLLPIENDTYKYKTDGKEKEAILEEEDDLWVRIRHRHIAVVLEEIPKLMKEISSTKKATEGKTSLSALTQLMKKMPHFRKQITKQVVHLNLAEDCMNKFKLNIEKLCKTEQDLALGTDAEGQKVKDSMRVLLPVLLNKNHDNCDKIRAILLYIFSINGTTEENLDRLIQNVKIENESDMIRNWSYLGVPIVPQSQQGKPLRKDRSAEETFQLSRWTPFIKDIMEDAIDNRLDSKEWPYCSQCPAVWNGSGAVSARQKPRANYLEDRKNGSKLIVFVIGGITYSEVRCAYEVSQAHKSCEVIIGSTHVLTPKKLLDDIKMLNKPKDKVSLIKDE
# UniProt P40763, whole entry, looked up: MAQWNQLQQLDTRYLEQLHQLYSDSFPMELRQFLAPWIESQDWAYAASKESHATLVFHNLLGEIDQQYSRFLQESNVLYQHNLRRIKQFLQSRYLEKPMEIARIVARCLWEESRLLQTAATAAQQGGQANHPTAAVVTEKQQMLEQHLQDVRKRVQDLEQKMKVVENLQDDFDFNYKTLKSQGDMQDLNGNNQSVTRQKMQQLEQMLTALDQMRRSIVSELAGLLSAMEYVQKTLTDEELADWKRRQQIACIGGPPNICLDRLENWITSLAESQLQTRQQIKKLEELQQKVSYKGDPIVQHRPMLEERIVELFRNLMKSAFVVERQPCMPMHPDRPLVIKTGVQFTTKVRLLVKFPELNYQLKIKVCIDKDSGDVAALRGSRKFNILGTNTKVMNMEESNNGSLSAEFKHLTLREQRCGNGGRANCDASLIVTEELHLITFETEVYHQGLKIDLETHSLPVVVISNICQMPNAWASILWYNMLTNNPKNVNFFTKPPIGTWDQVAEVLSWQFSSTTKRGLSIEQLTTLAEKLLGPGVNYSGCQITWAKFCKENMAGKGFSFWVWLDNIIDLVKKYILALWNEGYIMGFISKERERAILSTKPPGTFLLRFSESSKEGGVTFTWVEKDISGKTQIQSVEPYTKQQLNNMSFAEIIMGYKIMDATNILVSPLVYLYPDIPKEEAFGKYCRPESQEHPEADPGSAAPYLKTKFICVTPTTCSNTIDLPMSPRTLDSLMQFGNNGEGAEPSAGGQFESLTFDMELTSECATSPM
# UniProt Q9UJZ1: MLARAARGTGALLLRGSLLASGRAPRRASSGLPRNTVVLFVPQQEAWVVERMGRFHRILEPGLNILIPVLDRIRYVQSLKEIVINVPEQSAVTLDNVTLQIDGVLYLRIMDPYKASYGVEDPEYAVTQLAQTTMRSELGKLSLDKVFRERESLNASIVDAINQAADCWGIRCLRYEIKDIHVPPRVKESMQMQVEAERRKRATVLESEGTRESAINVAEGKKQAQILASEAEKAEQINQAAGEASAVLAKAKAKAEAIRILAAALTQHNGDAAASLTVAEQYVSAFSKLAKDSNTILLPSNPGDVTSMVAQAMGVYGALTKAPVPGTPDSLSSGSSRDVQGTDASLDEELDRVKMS
# UniProt Q15527: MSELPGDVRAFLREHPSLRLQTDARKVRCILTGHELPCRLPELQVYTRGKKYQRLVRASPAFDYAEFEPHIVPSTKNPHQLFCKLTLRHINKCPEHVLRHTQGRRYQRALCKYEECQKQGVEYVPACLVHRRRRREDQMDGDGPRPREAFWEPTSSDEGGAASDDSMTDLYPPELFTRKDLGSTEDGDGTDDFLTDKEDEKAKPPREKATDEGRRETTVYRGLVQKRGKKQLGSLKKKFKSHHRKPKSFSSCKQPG
# UniProt O95630, whole entry, looked up: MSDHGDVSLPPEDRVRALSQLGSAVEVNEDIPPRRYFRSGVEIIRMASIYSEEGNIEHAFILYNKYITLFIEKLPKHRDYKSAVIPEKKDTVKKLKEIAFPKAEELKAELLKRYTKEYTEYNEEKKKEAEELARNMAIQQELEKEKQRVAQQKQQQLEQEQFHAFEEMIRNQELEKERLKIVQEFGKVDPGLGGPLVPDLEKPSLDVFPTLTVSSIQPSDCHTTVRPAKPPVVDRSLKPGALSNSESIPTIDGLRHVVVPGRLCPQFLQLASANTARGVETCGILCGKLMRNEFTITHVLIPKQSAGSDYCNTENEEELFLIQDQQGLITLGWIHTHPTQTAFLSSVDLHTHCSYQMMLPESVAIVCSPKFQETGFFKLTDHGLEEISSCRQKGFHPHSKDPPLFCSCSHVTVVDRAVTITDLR
# UniProt O94804: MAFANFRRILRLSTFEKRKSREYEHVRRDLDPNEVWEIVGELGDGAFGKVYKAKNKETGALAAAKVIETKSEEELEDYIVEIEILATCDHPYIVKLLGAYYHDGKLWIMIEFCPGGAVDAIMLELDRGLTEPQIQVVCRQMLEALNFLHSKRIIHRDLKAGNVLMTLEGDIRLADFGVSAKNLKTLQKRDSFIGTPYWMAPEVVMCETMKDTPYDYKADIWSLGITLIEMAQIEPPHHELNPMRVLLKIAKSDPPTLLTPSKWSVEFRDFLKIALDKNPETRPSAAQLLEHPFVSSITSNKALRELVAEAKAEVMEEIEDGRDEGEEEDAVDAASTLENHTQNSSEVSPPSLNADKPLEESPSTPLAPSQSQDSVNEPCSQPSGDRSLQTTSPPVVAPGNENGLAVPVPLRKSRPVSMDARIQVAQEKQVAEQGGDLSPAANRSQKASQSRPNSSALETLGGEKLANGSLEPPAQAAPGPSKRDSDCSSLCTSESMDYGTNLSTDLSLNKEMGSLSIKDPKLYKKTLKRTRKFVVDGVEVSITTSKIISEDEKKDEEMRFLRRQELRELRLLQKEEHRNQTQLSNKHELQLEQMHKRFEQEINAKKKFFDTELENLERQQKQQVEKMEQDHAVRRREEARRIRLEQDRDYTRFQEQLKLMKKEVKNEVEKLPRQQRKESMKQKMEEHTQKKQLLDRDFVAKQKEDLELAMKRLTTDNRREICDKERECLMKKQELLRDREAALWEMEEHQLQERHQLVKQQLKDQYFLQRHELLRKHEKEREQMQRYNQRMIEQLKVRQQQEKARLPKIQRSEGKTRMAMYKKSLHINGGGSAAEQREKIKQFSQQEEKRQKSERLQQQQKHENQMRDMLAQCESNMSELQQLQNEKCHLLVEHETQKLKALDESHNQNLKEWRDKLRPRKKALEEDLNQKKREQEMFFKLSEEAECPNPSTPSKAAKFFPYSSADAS
# UniProt Q92783: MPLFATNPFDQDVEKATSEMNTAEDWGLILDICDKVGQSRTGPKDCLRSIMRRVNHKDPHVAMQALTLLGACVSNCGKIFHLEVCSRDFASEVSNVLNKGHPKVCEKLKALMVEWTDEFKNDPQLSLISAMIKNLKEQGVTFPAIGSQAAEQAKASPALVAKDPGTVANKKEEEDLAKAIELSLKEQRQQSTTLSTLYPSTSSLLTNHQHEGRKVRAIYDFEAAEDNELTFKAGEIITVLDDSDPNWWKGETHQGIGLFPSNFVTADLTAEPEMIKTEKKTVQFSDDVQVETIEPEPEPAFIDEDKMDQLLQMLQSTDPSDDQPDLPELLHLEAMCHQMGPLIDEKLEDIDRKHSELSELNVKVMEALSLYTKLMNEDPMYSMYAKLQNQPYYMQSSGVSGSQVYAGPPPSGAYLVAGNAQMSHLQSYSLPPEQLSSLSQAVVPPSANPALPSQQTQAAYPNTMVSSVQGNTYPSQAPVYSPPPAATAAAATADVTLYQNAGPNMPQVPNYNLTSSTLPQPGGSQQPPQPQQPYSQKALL
# UniProt Q16629: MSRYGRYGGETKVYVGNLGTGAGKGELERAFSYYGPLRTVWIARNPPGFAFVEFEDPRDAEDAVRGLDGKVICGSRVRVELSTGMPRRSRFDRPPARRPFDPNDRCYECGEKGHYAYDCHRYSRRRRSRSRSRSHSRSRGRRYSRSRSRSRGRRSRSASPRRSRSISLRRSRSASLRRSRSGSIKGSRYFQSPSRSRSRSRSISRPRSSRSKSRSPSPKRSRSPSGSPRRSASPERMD
# UniProt Q9UH65: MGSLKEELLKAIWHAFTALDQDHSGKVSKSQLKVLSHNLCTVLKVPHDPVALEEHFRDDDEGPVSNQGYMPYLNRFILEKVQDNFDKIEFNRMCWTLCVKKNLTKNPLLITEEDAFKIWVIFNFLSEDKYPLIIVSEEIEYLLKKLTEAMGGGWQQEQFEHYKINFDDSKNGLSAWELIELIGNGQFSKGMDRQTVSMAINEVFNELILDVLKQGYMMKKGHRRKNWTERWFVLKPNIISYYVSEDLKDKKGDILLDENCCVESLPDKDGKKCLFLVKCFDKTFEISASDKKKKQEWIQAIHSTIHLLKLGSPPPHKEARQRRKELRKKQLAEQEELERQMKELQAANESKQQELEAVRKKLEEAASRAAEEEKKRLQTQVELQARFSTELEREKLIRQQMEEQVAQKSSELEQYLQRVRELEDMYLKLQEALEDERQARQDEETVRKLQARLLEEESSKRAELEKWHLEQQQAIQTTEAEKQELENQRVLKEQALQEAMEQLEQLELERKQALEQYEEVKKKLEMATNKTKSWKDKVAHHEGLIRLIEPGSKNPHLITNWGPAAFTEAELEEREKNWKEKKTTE
# The list shows a part of the results.
# Compound: CC1Cc2ccccc2N1C(=O)C1CCCN(C1)C(=O)CCl (mixture of isomers) [TRIM25 ligand 11 (diastereomer mixture)]
# Assay: probe-labelled cysteine peptide fold change vs DMSO (competition) (log2 fold change); higher = less target engagement (more negative = stronger competition)
# Conditions: 50 µM; THP-1; incubation time: 4 h
# 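Further: competitive chemoproteomic profiling in live THP-1 cells with an iodoacetamide desthiobiotin (IA-DTB) probe, comparing probe-labelled peptide intensities in compound-treated cells against DMSO-treated controls.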
row,Target,probe-labelled cysteine peptide fold change
1,SUPT20H_Q8NEM7_341_SDDSQPTVWPAHDVKDDYVFECEAGTQYQK (UniProt Q8NEM7),-0.19
2,STK4_Q13043_80_EISIMQQCDSPHVVK (UniProt Q13043),-0.0804
3,STK11IP_Q8N1F8_918_NCVSATEEEVTPQHR (UniProt Q8N1F8),0.108
4,SUZ12_Q15022_531_RTPITHILVCRPK (UniProt Q15022),-0.163
5,STXBP3_O00186_26_ATVFDDCKK (UniProt O00186),-0.0748
6,SVIL_O95425_1928_ALIYLWHGCK (UniProt O95425),0.195
7,STXBP2_Q15833_158_EIHLAFLPYEAQVFSLDAPHSTYNLYCPFRAEER (UniProt Q15833),-0.351
8,STK11IP_Q8N1F8_710_TESPAVCPNCGSDHVVLLAVSR (UniProt Q8N1F8),0.276
9,STAT3_P40763_687_YCRPESQEHPEADPGSAAPYLK (UniProt P40763),-0.195
10,STOML2_Q9UJZ1_167_ERESLNASIVDAINQAADCWGIR (UniProt Q9UJZ1),0.0402
11,STOML2_Q9UJZ1_167_ESLNASIVDAINQAADCWGIR (UniProt Q9UJZ1),0.101
12,SURF2_Q15527_29+38_CILTGHELPCR (UniProt Q15527),-0.0248
13,ST14_Q9Y5Y6_214_TQDNSCSFGLHAR (UniProt Q9Y5Y6),-0.0316
14,STAMBP_O95630_406+408_DPPLFCSCSHVTVVDR (UniProt O95630),-0.0767
15,STK10_O94804_873_DMLAQCESNMSELQQLQNEK (UniProt O94804),-0.448
16,STARD7_Q9NQZ5_362_KNEGSCGPAR (UniProt Q9NQZ5),-0.224
17,SUCLA2_Q9P2R7_384_CDVIAQGIVMAVK (UniProt Q9P2R7),0.147

row,Target,probe-labelled cysteine peptide fold change
1,STAM_Q92783_76_DPHVAMQALTLLGACVSNCGK (UniProt Q92783),0.192
2,ST13_P50502_209_LLGHWEEAAHDLALACKLDYDEDASAMLK (UniProt P50502),-0.574
3,SRSF3_P84103_6_DSCPLDCK (UniProt P84103),-0.245
4,STXBP3_O00186_26_ATVFDDCK (UniProt O00186),-0.123
5,STUB1_Q9UNE7_232_DIPDYLCGK (UniProt Q9UNE7),-0.0445
6,SSRP1_Q08945_139_FGGQLLSFDIGDQPVFEIPLSNVSQCTTGK (UniProt Q08945),-0.0737
7,SUPT6H_Q7KZ85_1465_EKPTFIPYFICACK (UniProt Q7KZ85),-0.0985
8,SRSF7_Q16629_106+109_CYECGEK (UniProt Q16629),0.122
9,SURF2_Q15527_127_QGVEYVPACLVHR (UniProt Q15527),0.057
10,STRN_O43815_765_CYIASAGADALAK (UniProt O43815),-0.0511
11,SWAP70_Q9UH65_261_KGDILLDENCCVESLPDK (UniProt Q9UH65),-0.114
12,SUGP2_Q8IX01_417_NCFFEIIKPFDK (UniProt Q8IX01),-0.108
13,STAT2_P52630_74_CSQDPESLLLQHNLR (UniProt P52630),0.0599
14,SSRP1_Q08945_200_ADVIQATGDAICIFR (UniProt Q08945),-0.0316
15,STYX_Q8WUJ0_156_FCINPNAGFVHQLQEYEAIYLAK (UniProt Q8WUJ0),0.0113
16,SUMF2_Q8NBJ7_290_CAADAGRPPGEL (UniProt Q8NBJ7),-0.0645

# Shown tab-delimited: entries from further up.
row	Target	probe-labelled cysteine peptide fold change
3	STK11IP_Q8N1F8_918_NCVSATEEEVTPQHR (UniProt Q8N1F8)	0.108
4	SUZ12_Q15022_531_RTPITHILVCRPK (UniProt Q15022)	-0.163
8	STK11IP_Q8N1F8_710_TESPAVCPNCGSDHVVLLAVSR (UniProt Q8N1F8)	0.276
9	STAT3_P40763_687_YCRPESQEHPEADPGSAAPYLK (UniProt P40763)	-0.195
14	STAMBP_O95630_406+408_DPPLFCSCSHVTVVDR (UniProt O95630)	-0.0767
1	STAM_Q92783_76_DPHVAMQALTLLGACVSNCGK (UniProt Q92783)	0.192
9	SURF2_Q15527_127_QGVEYVPACLVHR (UniProt Q15527)	0.057
14	SSRP1_Q08945_200_ADVIQATGDAICIFR (UniProt Q08945)	-0.0316
